According to patent publication US20250154203 (published 2025):
Where a sequence shows no end group, the ends are not given.

How the values were obtained:
[1] = general procedure: Fmoc solid-phase peptide synthesis; Wang-Resin; settings: whole synthesis, area %; run 1
[2] = general procedure: Fmoc solid-phase peptide synthesis; H-L-Asp(OtBu)-2CT-Resin; settings: whole synthesis, area %; run 1

Sequence: DGSVVVNKVSELPAGHGLNVNTLSYGDLAAD
- final HPLC purity [1]: 89.84%
- final HPLC purity [2]: 96.51%
